From article PMC12431657, “Discovery and mechanistic insights of dibenzoylmethane as a broad spectrum inhibitor of coronavirus” (PLOS Pathogens, 2025)
Counter-ions that a name gives are not always drawn. Like-named read-outs stand apart in the source and are kept apart here. Hit rate of the full screen: of about 3,300 compounds, about 60 (2%) showed an effect of 50% or more. Some of the results follow.

Test system: HCoV-OC43
Design: species or system RD; HTS, protection from HCoV-OC43 induced cell death, luminescent cell viability (CellCounting-Lite 2.0), inhibition rate
Settings: 24 h post infection, 1 h compound pre-incubation, 10 µM, inhibitor

Row | Compound | OC43 Inhibition rate [%] | OC43 Inhibition rate (OC43 Inhibition rate, 24 h) [%]
1 | COc1cc2c3c(c1OC)-c1ccccc1C[C@H]3N(C)CC2 [Nuciferine] | 2.6 | –
2 | O=C(O)CCCCC(=O)O [Adipic acid] | -5.2 | –
3 | Cn1cc(C(=O)O)ccc1=O [1-Methyl-6-oxo-1,6-dihydropyridine-3-carboxylic acid] | 0.2 | –
4 | COCC(=O)O [Methoxyacetic acid] | 5.1 | –
5 | COc1ccc(-c2cc(=O)c3c(OC)c(OC)c(OC)c(OC)c3o2)cc1O [3'-Demethylnobiletin] | 12.4 | –
6 | COc1c2ccoc2nc2c(O)cccc12 [Robustine] | 1.9 | –
7 | N[C@@H](CC(=O)N[C@@H](CC(=O)O)C(=O)O)C(=O)O [β-Aspartylaspartic acid] | 2.7 | –
8 | CCCC(=O)c1c(O)c(Cc2c(O)c(Cc3c(O)c(C)c(OC)c(C(=O)CCC)c3O)c(O)c(C(=O)[C@@H](C)CC)c2O)c(O)c(C)c1OC [Agrimol B] | 0.4 | –
9 | CC(C)(C)c1ccc(O)c(C(C)(C)C)c1 [2,4-Di-tert-butylphenol] | 0.9 | –
10 | CC(C)(O)[C@H]1CC[C@@](C)([C@H]2CC[C@]3(C)[C@@H]2[C@H](O)C[C@@H]2[C@@]4(C)CC[C@H](O)C(C)(C)[C@@H]4[C@@H](O[C@@H]4O[C@H](CO)[C@@H](O)[C@H](O)[C@H]4O)C[C@]23C)O1 [Pseudoginsenoside RT5] | 2.3 | –
11 | C[C@]12CC[C@@H]3c4ccc(O)cc4CC[C@H]3[C@@H]1CC[C@@H]2O [Estradiol] | 0.6 | –
12 | COc1cc(CC(=O)C(=O)O)ccc1O [Vanilpyruvic acid] | 6 | –
13 | c1ccc(Nc2ccccc2)cc1 [Diphenylamine (hydrochloride)] | -2.3 | –
14 | CC[C@@]1(O)C(=O)OCc2c1cc1n(c2=O)Cc2cc3ccccc3nc2-1 [Camptothecin] | -3.3 | –
15 | C[n+]1cc2c3c(ccc2c2ccc4cc5c(cc4c21)OCO5)OCO3 [Sanguinarine (chloride)] | -27.3 | –
16 | CC1=C(CC[C@H](C)CO[C@@H]2O[C@H](CO)[C@@H](O)[C@H](O)[C@H]2O)O[C@H]2C[C@H]3[C@@H]4CC[C@@H]5C[C@@H](O[C@@H]6O[C@H](CO)[C@@H](O)[C@H](O)[C@H]6O[C@@H]6O[C@H](CO)[C@@H](O)[C@H](O)[C@H]6O)CC[C@]5(C)[C@H]4CC[C@]3(C)[C@@H]12 [Timosaponin C] | 1.3 | –
17 | O=C1C[C@@H](c2ccc(O)cc2)Oc2cc(O)ccc21 [Liquiritigenin] | 0.2 | –
18 | CC(C)=CCC[C@](C)(O[C@@H]1O[C@H](CO)[C@@H](O)[C@H](O)[C@H]1O)[C@H]1CC[C@]2(C)[C@@H]1[C@H](O)C[C@@H]1[C@@]3(C)CC[C@H](O)C(C)(C)[C@@H]3[C@@H](O)C[C@]12C [Ginsenoside F1] | 2.8 | –
19 | Nc1ncnc2c1ncn2[C@@H]1O[C@H](CO)[C@@H](O)[C@H]1O [Adenosine] | 5.5 | –
20 | N[C@H](CO)Cc1cnc[nH]1 [L-Histidinol (dihydrochloride)] | -0.9 | –

Row | Compound | OC43 Inhibition rate [%] | OC43 Inhibition rate (OC43 Inhibition rate, 24 h) [%]
21 | C=C(C)[C@@H]1CC[C@]2(C(=O)O)CC[C@]3(C)[C@H](CC[C@@H]4[C@@]5(C)CCC(=O)C(C)(C)[C@@H]5CC[C@]43C)[C@@H]12 [Betulonic acid] | -0.8 | –
22 | CCN(CC)c1ccc2cc(-c3nc4ccccc4s3)c(=O)oc2c1 [Coumarin 6] | -0.3 | –
23 | CCCCCCCC/C=C\CCCCCCCC(=O)OC[C@H](COP(=O)(O)O)OC(=O)CCCCCCC/C=C\CCCCCCCC [1,2-Dioleoyl-sn-glycero-3-phosphate, sodium salt] | 1.6 | –
24 | CC(=O)O[C@H]1CC(=O)OC(C)(C)[C@@H]2CC(=O)[C@]3(C)[C@H](CC[C@@]4(C)[C@H](c5ccoc5)OC(=O)[C@H]5O[C@]543)[C@@]12C [Nomilin] | 0.1 | –
25 | O=C1O[C@H]([C@H](O)CO)C(O)=C1O [Sodium erythorbate] | – | -0.7
26 | C=CC1=C(C)c2cc3[nH]c(cc4nc(cc5[nH]c(cc1n2)c(C)c5CCC(=O)O)C(CCC(=O)O)=C4C)c(C)c3C=C [Protoporphyrin IX] | 0.4 | –
27 | CCc1c2c(nc3ccccc13)-c1cc3c(c(=O)n1C2)COC(=O)[C@]3(O)CC [7-Ethylcamptothecin] | -1.9 | –
28 | CC[C@@H](N)C(=O)O [D(-)-2-Aminobutyric acid] | 6.5 | –
29 | C=C1C[C@@]23CC[C@H]4[C@@](C)(CCC[C@@]4(C)C(=O)O)[C@@H]2CC[C@]1(O)C3 [Steviol] | 0 | –
30 | Oc1ccc(OC2CCCCO2)cc1 (stereo not shown) [Deoxyarbutin] | 0.7 | –
31 | CNCc1ccccc1 [N-Methylbenzylamine] | 0 | –
32 | C=C(C)[C@H](CC=C(C)C)Cc1c(O)cc(O)c2c1O[C@H](c1ccc(O)cc1O)CC2=O [sophoraflavanone G] | 39.8 | –
33 | COc1cc(OC)cc(OC)c1 [1,3,5-Trimethoxybenzene] | -0.5 | –
34 | O=c1ccc2cc(O)c(O[C@@H]3O[C@H](CO)[C@@H](O)[C@H](O)[C@H]3O)cc2o1 [Cichoriin] | -0.2 | –
35 | COc1ccc(-c2oc3c(CC=C(C)C)c(O)cc(O)c3c(=O)c2O[C@@H]2O[C@@H](C)[C@H](O)[C@@H](O)[C@H]2O[C@@H]2O[C@@H](C)[C@H](O)[C@@H](O)[C@H]2O)cc1 [2''-O-Rhamnosylicariside II] | 0.3 | –
36 | CC(=O)c1c(C)c([N+](=O)[O-])c(C(C)(C)C)c([N+](=O)[O-])c1C [Musk ketone] | 5.5 | –
37 | CC(C)c1ccc2c(c1)CC[C@H]1[C@](C)(C(=O)O)CCC[C@]21C [Dehydroabietic acid] | -0.5 | –
38 | O=C1Nc2ccccc2/C1=C1/Nc2ccccc2C1=O [Indirubin] | -0.1 | –
39 | CC(C)(O)[C@@H]1Cc2c(cc3oc(CO)cc(=O)c3c2O)O1 [Angelicain] | -0.3 | –
40 | CC(C)=CCC[C@]1(C)C=Cc2c(O)c3c(c(CC=C(C)C)c2O1)O[C@]12C(=C[C@@H]4C[C@H]1C(C)(C)O[C@@]2(C/C=C(/C)C(=O)O)C4=O)C3=O [Gambogic Acid] | -4.4 | –

Complete entries as entered above. Values in the order: OC43 Inhibition rate [%]	OC43 Inhibition rate (OC43 Inhibition rate, 24 h) [%]
`Cn1cc(C(=O)O)ccc1=O` [1-Methyl-6-oxo-1,6-dihydropyridine-3-carboxylic acid] is listed with 0.2	–
`CC(C)c1ccc2c(c1)CC[C@H]1[C@](C)(C(=O)O)CCC[C@]21C` [Dehydroabietic acid] is listed with -0.5	–
`N[C@H](CO)Cc1cnc[nH]1` [L-Histidinol (dihydrochloride)] is listed with -0.9	–
